Among all 330,000 compounds or so, about 7,700 (2.3%) were called active. Inconclusive results, whose numbers are uncertain, are shown with a selection of clear calls. Calls follow the shape of the dose curve; as a rule, active = well fitted inhibition curve with a large enough effect; inconclusive = small, poorly fitted or top-dose-only effect, or effect the other way; inactive = flat fitted curve, though single readings scatter. A potency beside an inconclusive call is a rough fit, not a confirmed value.
assay: qHTS screen for small molecules that inhibit ELG1-dependent DNA repair in human embryonic kidney (HEK293T) cells expressing luciferase-tagged ELG1; conditions: HEK293T ELG1-luciferase reporter, luminescence, 16 h, DNA damage induced by 5-fluorouridine; activity change, negative = inhibition: at 46.1 µM (top of the series); also: nearly all actives have a fitted effect of over 55% in size
Outline: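 Quantitative HTS, concentration-response format. 2,000 cells/well co-treated with 5-fluorouridine and compound, 16 hr in 5% CO2 at 37 °C; ONE-Glo luminescence read after 30 min.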
% is scaled to controls: 0 for no effect and ±100 for the full control effect; potency is read from the fitted curve at half-maximal effect.

Row | SMILES | activity change, negative = inhibition | Potency
1 | CSCCC(NC(=O)C1CCC(C)CC1)C(=O)NCCN1CCC(C)CC1 (configuration not stated) | inactive: 1.52% | 
2 | O=C(Nc1ccccc1C(=O)Nc1ccccn1)c1ccc([N+](=O)[O-])cc1 | inactive: -15.9% | 
3 | Cc1cccc(N2CCN(c3ccc4cc(S(=O)(=O)N5CCCCC5)ccc4n3)CC2)c1C |  | inconclusive: 5.17 µM [inhibitor, single point]
4 | COCCn1c(SCC(=O)NC2CCCC2)nnc1-c1ccco1 | inactive: 13.9% | 
5 | CCN(CC)S(=O)(=O)c1ccc(NC2c3ccccc3C(=O)N2Cc2ccc3c(c2)OCO3)cc1 (configuration not stated) |  | inconclusive: 23.1 µM [inhibitor, single point]
6 | CC(N=c1ccccn1C(=O)Nc1ccc(Cl)cc1)c1ccco1 (configuration not stated) | inactive: 27.1% | 
7 | COc1ccc(-c2cc(C(=O)NC3CCCC3)no2)cc1OC |  | inconclusive: 18.4 µM [activator, partial curve]
8 | O=C(Nc1ccccc1)c1ccc(-c2ccc(Br)cc2)o1 |  | inconclusive: 20.6 µM [activator, partial curve]
9 | C=CCN(C(=O)Cc1cccs1)c1nc(-c2ccc(S(C)(=O)=O)cc2)cs1 |  | inconclusive: 6.51 µM [activator, partial curve, poor fit]
10 | CC(C(=O)NC1CCCC1)N(Cc1ccco1)C(=O)c1snc(C(=O)NC2CCCC2)c1N (configuration not stated) |  | inconclusive: 18.4 µM [inhibitor, single point]
11 | CN(C(=O)COc1ccc(Cl)cc1Br)C1CCCCC1 |  | inconclusive: 18.3 µM [activator, single point]
12 | Cc1ccc(CNc2nc(C)c(C(=O)N(C)C)s2)cc1 |  | inconclusive: 13 µM [activator, partial curve]
13 | O=[N+]([O-])c1ccc(/C=N/n2c(CO)nc3ccccc32)s1 |  | inconclusive: 3.66 µM [inhibitor, single point]
14 | C/C(=N\NC(=O)c1ccc(Cl)cc1)c1cccs1 |  | inconclusive: 2.06 µM [activator, full curve]
15 | CCOC(=O)C(Oc1ccc2c(-c3ccc(OC)cc3)cc(=O)oc2c1C)c1ccccc1 (configuration not stated) | inactive: -15.4% | 
16 | O=C(Nc1nc2ccccc2[nH]1)c1ccc(Cl)cc1 |  | inconclusive: 0.411 µM [activator, full curve]
17 | Cc1ccnc(NC(=O)CCNC(=O)c2ccccc2Cl)c1 |  | inconclusive: 14.6 µM [activator, partial curve, poor fit]
18 | CCc1ccc2oc(C(=O)N3CCN(C)CC3)cc(=O)c2c1 |  | inconclusive: 29.1 µM [activator, partial curve, poor fit]
19 | COc1ccc(N2CCN(C(c3cccs3)C(C)NS(=O)(=O)c3ccccc3)CC2)cc1 (configuration not stated) |  | inconclusive: 29.1 µM [inhibitor, single point]
20 | CC1CN(c2nc3ccccc3nc2NS(=O)(=O)c2ccccc2)CC(C)O1 (configuration not stated) | inactive: 8.68% | 
21 | CCOC(=O)c1ccc(Oc2nc(NC(C)(C)C)nc(N(C)C)n2)cc1 |  | inconclusive: 18.4 µM [inhibitor, partial curve]
22 | CCOC(=O)c1ccc(NC(=O)C2(c3ccc(OC)cc3)CCCC2)cc1 |  | inconclusive: 9.2 µM [inhibitor, partial curve]
23 | CC(=O)Nc1ccc2nc(NC(=O)COc3ccccc3Cl)sc2c1 |  | inconclusive: 16.4 µM [activator, partial curve]

Row | SMILES | activity change, negative = inhibition | Potency
24 | CCOc1cccc2cc(C(=O)NC(C)c3ccccc3)c(=N)oc12 (configuration not stated) | inactive: 13.1% | 
25 | C/C=C(\C)C(=O)Nc1cccc(C2=NOC3(C2)C[C@H](C(N)=O)N(C(=O)C(c2ccccc2)c2ccccc2)C3)c1 (some centres not stated) |  | inconclusive: 14.6 µM [inhibitor, partial curve, poor fit]
26 | COc1ccc(C2=CC(=O)CC(C)(C)C2)cc1OC |  | inconclusive: 8.2 µM [activator, partial curve, poor fit]
27 | O=C1N[C@@H](Cc2ccccc2)COC(=O)[C@H](Cc2ccc(F)cc2)CC/C=C/C[C@@H]1CC(=O)N(CCO)Cc1ccccc1 | inactive: -10.9% | 
28 | Cc1cc(C)c(OCC(=O)Nc2ccc3c(c2)OCO3)cc1C |  | inconclusive: 4.11 µM [activator, full curve]
29 | Cc1cc(C)n(-c2ccc(C(=O)Nc3nc4ccccc4s3)cc2)n1 |  | inconclusive: 2.31 µM [activator, partial curve]
30 | CC(CN1C(C)CCCC1C)OC(=O)c1ccccc1F (configuration not stated) | inactive: 4.07% | 
31 | C/C(=N\NC(=O)C1CC1)c1ccc(N2CCOCC2)cc1 | inactive: 24.4% | 
32 | Nc1c(N(CCO)C(=O)COc2ccc(Cl)cc2)c(=O)[nH]c(=O)n1Cc1ccccc1 | inactive: 11.7% | 
33 | CCOC(=O)COc1ccc2c(c1)c(C(=O)OCC)c(C)n2CC |  | inconclusive: 23.1 µM [inhibitor, partial curve, poor fit]
34 | N#C/C(=C\c1ccc(-c2cccc([N+](=O)[O-])c2)o1)c1nnc(N2CCOCC2)n1-c1ccccc1 |  | active: 5.8 µM
35 | COc1ccc(/C=C/c2ccccc2)cc1[C@H]1[C@H]2C=CC[C@@H](C)[C@@H]2C(=O)N1Cc1ccccc1 |  | inconclusive: 13 µM [inhibitor, partial curve, poor fit]
36 | COc1ccc(OC)c(NC(=O)NNC(=O)c2cc3occc3[nH]2)c1 | inactive: 8.26% | 
37 | CSC1=C(C#N)C(c2cccs2)CC(=O)N1C (configuration not stated) | inactive: -1.22% | 
38 | COc1ccc2[nH]c3c(N4CCC(O)(c5cccc(C(F)(F)F)c5)CC4)ncnc3c2c1 |  | inconclusive: 25.9 µM [inhibitor, single point]
39 | COc1ccc(-c2csc(Nc3ccccn3)n2)cc1OC |  | inconclusive: 1.3 µM [activator, partial curve]
40 | O=C(c1cnn2c(C(F)F)cc(-c3ccccc3)nc12)N1CCc2ccccc2C1 |  | inconclusive: 29.1 µM [inhibitor, single point]
41 | COc1ccc(C(=O)Nc2ccc(NC(=O)c3cnccn3)cn2)cc1 |  | inconclusive: 25.9 µM [activator, partial curve, poor fit]
42 | C/C(=N/NS(C)(=O)=O)c1ccc2ccccc2c1 |  | inconclusive: 32.6 µM [activator, partial curve, poor fit]
43 | CCOC(=O)C1=C(C)N=c2s/c(=C3\C(=O)Nc4ccccc43)c(=O)n2C1c1ccc2c(c1)OCO2 (configuration not stated) |  | inconclusive: 18.4 µM [activator, partial curve, poor fit]
44 | CCOC(=O)c1sc2nc(N3CCCC3)c3c(c2c1N)CC(C)(C)OC3 |  | inconclusive: 4.61 µM [inhibitor, single point]
45 | O=C(Cc1ccon1)c1ccc(O)cc1O |  | inconclusive: 16.4 µM [activator, partial curve, poor fit]
46 | CC(C)c1cc(C(=O)Nc2ccc3c(c2)OCO3)no1 |  | inconclusive: 4.61 µM [activator, partial curve]

Structural class, those above containing an aryl methoxy group
Row | SMILES | activity change, negative = inhibition | Potency
7 | COc1ccc(-c2cc(C(=O)NC3CCCC3)no2)cc1OC |  | inconclusive: 18.4 µM [activator, partial curve]
15 | CCOC(=O)C(Oc1ccc2c(-c3ccc(OC)cc3)cc(=O)oc2c1C)c1ccccc1 (configuration not stated) | inactive: -15.4% | 
19 | COc1ccc(N2CCN(C(c3cccs3)C(C)NS(=O)(=O)c3ccccc3)CC2)cc1 (configuration not stated) |  | inconclusive: 29.1 µM [inhibitor, single point]
22 | CCOC(=O)c1ccc(NC(=O)C2(c3ccc(OC)cc3)CCCC2)cc1 |  | inconclusive: 9.2 µM [inhibitor, partial curve]
26 | COc1ccc(C2=CC(=O)CC(C)(C)C2)cc1OC |  | inconclusive: 8.2 µM [activator, partial curve, poor fit]
35 | COc1ccc(/C=C/c2ccccc2)cc1[C@H]1[C@H]2C=CC[C@@H](C)[C@@H]2C(=O)N1Cc1ccccc1 |  | inconclusive: 13 µM [inhibitor, partial curve, poor fit]
36 | COc1ccc(OC)c(NC(=O)NNC(=O)c2cc3occc3[nH]2)c1 | inactive: 8.26% | 
38 | COc1ccc2[nH]c3c(N4CCC(O)(c5cccc(C(F)(F)F)c5)CC4)ncnc3c2c1 |  | inconclusive: 25.9 µM [inhibitor, single point]
39 | COc1ccc(-c2csc(Nc3ccccn3)n2)cc1OC |  | inconclusive: 1.3 µM [activator, partial curve]
41 | COc1ccc(C(=O)Nc2ccc(NC(=O)c3cnccn3)cn2)cc1 |  | inconclusive: 25.9 µM [activator, partial curve, poor fit]

Three entries already listed, ordered by number of heavy atoms, high to low.
Row | SMILES | activity change, negative = inhibition | Potency
35 | COc1ccc(/C=C/c2ccccc2)cc1[C@H]1[C@H]2C=CC[C@@H](C)[C@@H]2C(=O)N1Cc1ccccc1 |  | inconclusive: 13 µM [inhibitor, partial curve, poor fit]
40 | O=C(c1cnn2c(C(F)F)cc(-c3ccccc3)nc12)N1CCc2ccccc2C1 |  | inconclusive: 29.1 µM [inhibitor, single point]
31 | C/C(=N\NC(=O)C1CC1)c1ccc(N2CCOCC2)cc1 | inactive: 24.4% | 

Next records

Row | SMILES | activity change, negative = inhibition | Potency
47 | CC(C)(C)N1C(=O)[C@H]2[C@@H](c3ccc(Br)cc3)N3C(=O)N(c4cccc(Cl)c4)C(=O)[C@@]3(Cc3ccccc3)[C@H]2C1=O | inactive: -3.2% | 
48 | Cc1sc2ncnc(N3CCN(S(=O)(=O)c4ccc(F)cc4)CC3)c2c1C |  | inconclusive: 25.9 µM [inhibitor, single point]
49 | Cc1cc(C)cc(OCC(O)CN2CCC(CN3C(=O)c4cccc5cccc(c45)C3=O)CC2)c1 (configuration not stated) |  | inconclusive: 20.6 µM [activator, single point]
50 | COC(=O)C1=C(C)N(CC(C)C)C(=O)/C1=C\c1cccs1 |  | inconclusive: 18.4 µM [inhibitor, single point]
51 | Cn1c(CSc2nc3ccccc3s2)nnc1SCC(=O)NCc1ccccn1 | inconclusive: 3.91% [activator] | 
52 | CC(C)(Oc1ccc(Cl)cc1)C(=O)NCC(c1cccs1)N1CCOCC1 (configuration not stated) |  | inconclusive: 2.31 µM [inhibitor, partial curve]
53 | CC(=O)Nc1ccc2nc(-c3ccccn3)[nH]c2c1 |  | inconclusive: 12.6 µM [activator, partial curve]
54 | Cc1ccc(OCCNC(=O)c2ccccc2F)cc1 |  | inconclusive: 18.3 µM [activator, single point]
55 | Cc1ccc(NC(=O)CSc2nnc(CNC(=O)c3ccco3)n2C)c(C)c1 |  | inconclusive: 23.1 µM [activator, partial curve, poor fit]
56 | CC(C)C[C@H]1CN=C(Nc2ccccc2)N1CC1CCCCCC1 | inactive: -18.2% | 
57 | O=C(/C=C\Nc1cccc(F)c1)c1ccc2c(c1)OCO2 |  | inconclusive: 0.231 µM [activator, full curve]
58 | CCOc1nc2c(c(=O)n(C)c(=O)n2C)n1Cc1ccccc1Cl |  | active: 8.2 µM
59 | CN(C(=O)COC(=O)c1nc(Cl)c(Cl)c(Cl)c1Cl)C1CCS(=O)(=O)C1 (configuration not stated) |  | inconclusive: 4.61 µM [inhibitor, single point]
60 | C/C(=N\Nc1ccc(Cl)cc1)c1ccccn1 |  | inconclusive: 18.4 µM [activator, partial curve]
61 | CC1=C(C(=O)OCc2ccccc2)C(c2ccccc2Br)NC(=O)N1 (configuration not stated) |  | inconclusive: 29.1 µM [inhibitor, single point]
62 | Cc1cc(Cl)c2oc(C(=O)N(C)Cc3nccn3C)c(C)c2c1 | inactive: -16.8% | 
63 | O=C(NNC1CC(=O)N(c2cccc(Cl)c2)C1=O)c1cccnc1 (configuration not stated) |  | inconclusive: 0.146 µM [inhibitor, single point]
64 | O=C(COC(=O)c1cc([N+](=O)[O-])ccc1N1CCOCC1)Nc1ncc(Cl)cc1Cl |  | inconclusive: 29.1 µM [inhibitor, single point]
65 | C/C=C/C(=O)OCC(=O)Nc1ccc(OC)c(OC)c1 | inactive: -3.08% | 
66 | CCc1ccccc1NC(=S)N(Cc1cccs1)C1CCCC1 | inactive: -4.64% | 
67 | CCCCCCC[N+](CC)(CC)CCCCc1ccc(Cl)cc1 |  | inconclusive: 6.31 µM [inhibitor, partial curve, poor fit]
